Earlier results as cited in US20210299202A1, “FORMULATION OF C[…]” (CARDINAL ADVISORY LIMITED, priority 2018, published 2021).

Key:
[1] = inhalation of marijuana smoke
[2] = oral administration, after extensive liver metabolism

CCCCCc1cc(O)c2c(c1)OC(C)(C)[C@@H]1CCC(C)=C[C@@H]21 [THC, delta-9-tetrahydrocannabinol]
systemic bioavailability [1]: 10-35%
oral bioavailability [2]: 2-14%
